Measurements from PubChem BioAssay AID1347426 (Functional Genomics Laboratory (NCATS/FGL), 2020).
In all, about 31,000 sequences went through this assay and about 1,400 (4.5%) were called active.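 The calls were made as follows: active = median seed-adjusted z-score above 1 or below -1; inactive = the rest.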 This is one part of the list.

Test: Novel Modifiers of Survival Motor Neuron (SMN) Protein: Gene Identification via Genome-wide siRNA Screen;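 also: luminescence tracks full-length SMN protein made from the SMN2 reporter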
Conditions: HEK293T SMN2-luciferase reporter, siRNA knockdown, 72 h; actives lie on both sides
How it was run: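 Genome-wide siRNA screen (10418 genes, 3 siRNAs each, 1 pmol per well) by reverse transfection in HEK293T cells stably carrying an SMN2-luciferase reporter; luminescence after 72 hours, normalized to negative-control siRNA, log10-transformed, MAD-scored.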

**Q.** For GCAUGUGCAUUUCCUAACUTT against ESRRB, which median seed-adjusted z-score is on record?
**A.** inactive: -0.611

**Q.** With CGGUUACAUUUACUUCGUATT against SCN11A as the sequence, how does the median seed-adjusted z-score read?
**A.** inactive: 0.196

**Q.** With GGAUCUGCACAGUCUUCUATT against PSKH2 as the sequence, how does the median seed-adjusted z-score read?
**A.** inactive: 0.0439

**Q.** For GAGCUUUCAAGGAUAGGCUTT against HBG1, which median seed-adjusted z-score is on record?
**A.** inactive: -0.716

**Q.** With GCACGACCUUCAGCACAUUTT against ALX3 as the sequence, how does the median seed-adjusted z-score read?
**A.** inactive: -0.0707

**Q.** With GGAAUGUGCUGGUCGGAGATT against TIE1 as the sequence, how does the median seed-adjusted z-score read?
**A.** inactive: 0.0629

**Q.** For AACCGAUUCUAUGACAAUATT against SLC6A1, which median seed-adjusted z-score is on record?
**A.** inactive: -0.122

**Q.** With GCAAUUGUGGUAUUAGGAATT against NKIRAS1 as the sequence, how does the median seed-adjusted z-score read?
**A.** inactive: 0.113

**Q.** Which median seed-adjusted z-score does the source give for GAAACAUAGCAUAAGGUUUTT against WRNIP1 here?
**A.** inactive: 0.00972

**Q.** With AGAGCAUCCUUCUAGCCUATT against MYO7B as the sequence, how does the median seed-adjusted z-score read?
**A.** inactive: -0.167

**Q.** For UGCAUAAUAUUGACCCGAATT against ARSB, which median seed-adjusted z-score is on record?
**A.** inactive: 0.914

**Q.** With CAUUACUGUCUGUGGCUAATT against KCNK15 as the sequence, how does the median seed-adjusted z-score read?
**A.** inactive: -0.218

**Q.** With GGACCAAGCUGAUCGAUGATT against UBR4 as the sequence, how does the median seed-adjusted z-score read?
**A.** inactive: 0.602

**Q.** Which median seed-adjusted z-score does the source give for CAUCCAAUAUUUUCCCGUATT against DNA2 here?
**A.** inactive: 0.0284

**Q.** With GGAUUCUACGAUUCCGGUUTT against NQO2 as the sequence, how does the median seed-adjusted z-score read?
**A.** inactive: -0.0723

**Q.** Which median seed-adjusted z-score does the source give for GAAUGUUGUACAGAGCGUGTT against SNCG here?
**A.** inactive: -0.169

**Q.** For CAAGCGGAAAGAUAAAGUATT against ADARB2, which median seed-adjusted z-score is on record?
**A.** inactive: -0.249

**Q.** Which median seed-adjusted z-score does the source give for CGAGAAGUGUUACUCUUUCTT against CRLF2 here?
**A.** inactive: 0.218

**Q.** For GAAGGGACUUUGUACUGAUTT against VPS11, which median seed-adjusted z-score is on record?
**A.** inactive: 0

**Q.** For CAGUCUUACUUCCACACCATT against KRT38, which median seed-adjusted z-score is on record?
**A.** inactive: 0.0884

**Q.** Which median seed-adjusted z-score does the source give for GCACCAUCAUCCUAACAUATT against SLC17A2 here?
**A.** inactive: 0.141

**Q.** With GCAAUAUCUAUUCACCCAATT against BCL6 as the sequence, how does the median seed-adjusted z-score read?
**A.** inactive: -0.352

**Q.** With CCAGUCACUGCAUAACAUUTT against PSMD9 as the sequence, how does the median seed-adjusted z-score read?
**A.** inactive: 0.266

**Q.** Which median seed-adjusted z-score does the source give for GAAGAAGCUUUGAUAAAGATT against KLHL3 here?
**A.** inactive: -0.237

**Q.** Which median seed-adjusted z-score does the source give for CUGUGGCUCUUCUCCAACATT against RTN4RL2 here?
**A.** inactive: -0.168

**Q.** Which median seed-adjusted z-score does the source give for CUUUGACAGUGUUCGUGAATT against SGOL2 here?
**A.** inactive: 0.114

**Q.** Which median seed-adjusted z-score does the source give for GGAUUCCCUUCAAGAUAUATT against NUCB2 here?
**A.** inactive: 0.45

**Q.** Which median seed-adjusted z-score does the source give for CAGAGCCUUUGGGAAUAAATT against PTGER1 here?
**A.** inactive: 0.383

**Q.** For GCUGCUUAAUCUUCGGCAATT against PLCB1, which median seed-adjusted z-score is on record?
**A.** inactive: 0.0735

**Q.** With GAACCGUCCCAAUCGGUUATT against VCP as the sequence, how does the median seed-adjusted z-score read?
**A.** inactive: -0.808

**Q.** With GCGCGUUGGUACAAUGGAATT against GOT1 as the sequence, how does the median seed-adjusted z-score read?
**A.** inactive: 0.0103

**Q.** With GGUGUACUAUUCUCCAGCATT against AKAP1 as the sequence, how does the median seed-adjusted z-score read?
**A.** inactive: 0.182

**Q.** With GGCUAUGAUCAAAUCCUUATT against SLC17A4 as the sequence, how does the median seed-adjusted z-score read?
**A.** inactive: 0.262

**Q.** Which median seed-adjusted z-score does the source give for CAAAGAUGGACAAGCCUUATT against INSL4 here?
**A.** inactive: 0.399

**Q.** Which median seed-adjusted z-score does the source give for CAGAAUAUCCUGAGAAAGATT against AIFM2 here?
**A.** inactive: -0.106

**Q.** For CCUGGUAUUUAGAACAUAATT against ACOXL, which median seed-adjusted z-score is on record?
**A.** inactive: 0.53

**Q.** Which median seed-adjusted z-score does the source give for CCGCCUUUGUGAUGGAGCATT against FN3K here?
**A.** inactive: -0.508

**Q.** For CCAGGACAUUCGAAAGCGATT against TRAF4, which median seed-adjusted z-score is on record?
**A.** active: -1.16

**Q.** With CGACAUCGAAAGUAAAUUUTT against LPL as the sequence, how does the median seed-adjusted z-score read?
**A.** inactive: 0.389

**Q.** With GCAGGAUUUUCUAUCGAAATT against ITIH2 as the sequence, how does the median seed-adjusted z-score read?
**A.** inactive: 0.262

**Q.** For GCGAAAAGAGUAUCUAGAATT against CLOCK, which median seed-adjusted z-score is on record?
**A.** inactive: -0.338

**Q.** For GGGAAAGAGUGUGUUCUGATT against HSD11B1L, which median seed-adjusted z-score is on record?
**A.** inactive: -0.00448

**Q.** With GCAAGAACCUCAGUUAUGATT against CDH16 as the sequence, how does the median seed-adjusted z-score read?
**A.** inactive: -0.209

**Q.** Which median seed-adjusted z-score does the source give for GCUCGAUUUUUGAUCAGUUTT against MPP1 here?
**A.** inactive: -0.0762

**Q.** For GGUCCUAACUCACUACAAATT against PCDHGB2, which median seed-adjusted z-score is on record?
**A.** inactive: -0.429

**Q.** For CAACAGCUGUUAAUUGGAATT against VNN2, which median seed-adjusted z-score is on record?
**A.** inactive: -0.583

**Q.** For GAAAGAGCAAUGAUUUAUUTT against RFPL4B, which median seed-adjusted z-score is on record?
**A.** inactive: 0.92

**Q.** Which median seed-adjusted z-score does the source give for CCAUGUCUUUCUAUCGCAATT against PLD2 here?
**A.** inactive: -0.743

**Q.** Which median seed-adjusted z-score does the source give for GGACAGACAAGGCAGUUAATT against PRDM4 here?
**A.** inactive: 0.0804

**Q.** Which median seed-adjusted z-score does the source give for CGUUUACCAUGACCAUCGATT against APOB here?
**A.** inactive: -0.0862

**Q.** For CACCGGACCUAUGCAAUUATT against MS4A3, which median seed-adjusted z-score is on record?
**A.** inactive: 0.189

**Q.** Which median seed-adjusted z-score does the source give for GGUGCACUGCAGUUCAACATT against PIK3CA here?
**A.** inactive: 0.0823

**Q.** With GACAUAGGUUGGAGAAUAATT against PXK as the sequence, how does the median seed-adjusted z-score read?
**A.** inactive: -0.4

**Q.** With AACUCUAUCAAGUACAGUATT against CECR1 as the sequence, how does the median seed-adjusted z-score read?
**A.** inactive: 0.00187

**Q.** For GAGAGCUGAUUGGAGAUUATT against CDC25B, which median seed-adjusted z-score is on record?
**A.** inactive: -0.0158

**Q.** For GGAGGGUCCUUAUCGUAGATT against HDAC6, which median seed-adjusted z-score is on record?
**A.** inactive: 0.0457

**Q.** For CUACUGAUCACAUUCCUAUTT against GFPT1, which median seed-adjusted z-score is on record?
**A.** inactive: 0.416

**Q.** With GCAGUGAAGUUGACAGAUUTT against ZBTB37 as the sequence, how does the median seed-adjusted z-score read?
**A.** inactive: -0.219

**Q.** Which median seed-adjusted z-score does the source give for UCAUGUCAAUAUUUGGUGATT against UGT2B7 here?
**A.** inactive: 0.313

**Q.** Which median seed-adjusted z-score does the source give for GAUGAAAGCAUAUACAGCATT against CCR4 here?
**A.** inactive: 0

**Q.** With GGAAAUUAGAUACCGAGGATT against SLC25A30 as the sequence, how does the median seed-adjusted z-score read?
**A.** inactive: 0

**Q.** For GGCUUGUGCAGAGAUGAUATT against SERPINI2, which median seed-adjusted z-score is on record?
**A.** inactive: -0.174

**Q.** With AGAUCGUGCAGGACGGUGATT against RBP1 as the sequence, how does the median seed-adjusted z-score read?
**A.** inactive: 0.321

**Q.** With CGAGUGUUUGCUUAACGAATT against ADAMTS9 as the sequence, how does the median seed-adjusted z-score read?
**A.** inactive: 0.103

**Q.** For GAAGCUCUAGAACCCAAUATT against NPHP1, which median seed-adjusted z-score is on record?
**A.** inactive: -0.0667

**Q.** Which median seed-adjusted z-score does the source give for AGAUAGAGAAUGCUGAAUATT against DDAH2 here?
**A.** inactive: -0.301

**Q.** Which median seed-adjusted z-score does the source give for GACUCUAAUAGGAUUGGUATT against NFX1 here?
**A.** inactive: -0.256

**Q.** For GCCUCUACGGAUCAGUUAATT against RAB27A, which median seed-adjusted z-score is on record?
**A.** inactive: -0.134
